The assay deals with RIα, regulatory subunit of Protein Kinase A (PKA) (UniProt P10644). Nature of the assay: co-immunoprecipitation from MCF7 cell lysates with anti-RFC40 antibody; interaction present in untreated control, lost after treatment with the small molecule indole-3-carbinol.

Chains of the proteins cited; added tags and fusions are not shown. Lines headed by an entry give the natural chain unless they say otherwise; changes in a name come on top.
UniProt P10644: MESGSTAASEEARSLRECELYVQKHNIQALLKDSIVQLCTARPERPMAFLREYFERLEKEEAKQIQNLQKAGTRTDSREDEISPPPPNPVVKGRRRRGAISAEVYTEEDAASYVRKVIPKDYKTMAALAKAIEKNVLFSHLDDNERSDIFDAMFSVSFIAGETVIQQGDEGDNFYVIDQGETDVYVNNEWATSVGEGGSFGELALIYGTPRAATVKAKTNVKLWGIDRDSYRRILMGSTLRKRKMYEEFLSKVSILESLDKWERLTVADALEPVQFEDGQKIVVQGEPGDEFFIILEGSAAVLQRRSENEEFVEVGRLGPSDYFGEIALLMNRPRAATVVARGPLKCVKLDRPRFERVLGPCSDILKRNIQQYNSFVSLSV
UniProt P35250: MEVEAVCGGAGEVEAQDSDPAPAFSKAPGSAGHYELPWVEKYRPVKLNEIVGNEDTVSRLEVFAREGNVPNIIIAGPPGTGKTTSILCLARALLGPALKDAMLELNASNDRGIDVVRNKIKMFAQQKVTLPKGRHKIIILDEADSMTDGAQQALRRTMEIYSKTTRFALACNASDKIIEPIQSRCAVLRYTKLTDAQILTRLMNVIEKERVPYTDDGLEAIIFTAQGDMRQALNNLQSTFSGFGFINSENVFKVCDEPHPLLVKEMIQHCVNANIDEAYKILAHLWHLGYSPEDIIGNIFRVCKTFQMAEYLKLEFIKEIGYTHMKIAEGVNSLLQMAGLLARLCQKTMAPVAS

Results are given in words; binding and its absence hold for the method and conditions named. Binding seen in cells or lysates may run through a third protein. Some binding calls cover weakened binding; strength is not graded here.

Among the data in patent US20180066261A1 are binding values, retold here.

Consider “Replication Factor C 40 (RFC40) (from UniProt P35250 1-354)”, for which the binding result is “binds”.
